4 molecules from publication PMC10433927 can be followed below.

These are yes or no findings as the source states them, for the method shown. Binding calls can cover weak binding; strength is not graded here. For some of these results: Tags and fused reporters may be left off the sequences shown. For some of these results: Binding seen in cells or lysates may run through a third protein.

Experiment [1] has as its target T1, BD-ZmSGT1 (Zea mays).
T1 sequence: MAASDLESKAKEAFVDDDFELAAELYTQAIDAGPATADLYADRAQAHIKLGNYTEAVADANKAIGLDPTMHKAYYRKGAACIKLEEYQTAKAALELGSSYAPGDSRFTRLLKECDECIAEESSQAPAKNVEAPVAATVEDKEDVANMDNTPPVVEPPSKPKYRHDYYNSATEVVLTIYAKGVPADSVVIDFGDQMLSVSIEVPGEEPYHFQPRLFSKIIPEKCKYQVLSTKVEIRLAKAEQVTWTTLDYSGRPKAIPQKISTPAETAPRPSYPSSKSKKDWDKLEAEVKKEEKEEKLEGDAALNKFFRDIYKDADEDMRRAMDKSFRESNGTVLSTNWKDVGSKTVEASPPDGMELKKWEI
As to the kind of experiment: two-hybrid; yeast AH109, pGBKT7 (BD) and pGADT7 (AD); dilution series on SD-Leu-Trp and SD-Leu-Trp-His, 5 d at 28 °C.

The target of experiment [2] is BD-UmSee1∆SP (Ustilago maydis). The description is as above.
Experiment [3] concerns the target ZmSIP1-4myc (Zea mays). As to the kind of experiment: co-IP; co-expression in N. benthamiana leaves, harvest 3 dpi; Myc magnetic beads at 4 °C; blots with anti-HA and anti-myc.
The target of experiment [4] is ZmSIP3-4myc (Zea mays). The experiment is described as above.
Experiment [5] addresses ZmSIP2-4myc (Zea mays). The description is as above.

Consider AD-ZmSIP2 (from UniProt A0A1D6G9Q0), for which the binding result in experiment [1] and in experiment [2] was “binds” each time. With AD-ZmSIP1 (Zea mays), the binding entry in experiment [1] is reported as “binds”. As for AD-ZmSIP3 (Zea mays), the binding entry in experiment [1] is given as “binds weakly”.

B1: ZmSGT1-6HA (protein, UniProt A0A3L6DPG1 1-361)
chain: T1 sequence
Regarding B1, the binding entry in experiment [3], in experiment [4] and in experiment [5] was “binds” each time.
